Measured values published in PMC2949602, “Genome-wide search identifies Ccnd2 as a direct transcriptional target of Elf5 in mouse mammary gland”.
Changes are numbered by the printed parent chain. For some assays here: A weaker result is weaker than the reference pair of the same experiment. Protein sequences can lack the tags named with them. The exact form of at least one protein or probe is not confirmed. For some assays here: A negative result means that nothing was seen under these conditions.

How the values were obtained:
Assay in all cases: EMSA
[1] = biological target: T1, GST-Elf5 MT1 (K216A) (mouse) (UniProt Q8VDK3); details: 20 mM HEPES pH 7.9, 75 mM KCl, 2.5 mM MgCl2, 1 mM EDTA, 0.5 mM DTT, 10% glycerol, 1 ug poly(dA-dT), room temperature; 5% nondenaturing PAGE; recombinant …; residues 1-253; label: 32P (Klenow fill-in with dCTP)
T1 sequence (looked up): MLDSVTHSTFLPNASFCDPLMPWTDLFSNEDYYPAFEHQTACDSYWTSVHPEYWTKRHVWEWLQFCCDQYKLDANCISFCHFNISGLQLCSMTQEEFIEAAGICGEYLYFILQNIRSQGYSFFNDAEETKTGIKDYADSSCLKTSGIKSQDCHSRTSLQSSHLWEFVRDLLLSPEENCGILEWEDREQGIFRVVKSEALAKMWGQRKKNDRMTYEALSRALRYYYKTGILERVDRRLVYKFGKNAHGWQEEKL

[2] = biological target: T2, GST-Elf5 MT2 (R219A) (mouse) (UniProt Q8VDK3); details: 20 mM HEPES pH 7.9, 75 mM KCl, 2.5 mM MgCl2, 1 mM EDTA, 0.5 mM DTT, 10% glycerol, 1 ug poly(dA-dT), room temperature; 5% nondenaturing PAGE; recombinant …; residues 1-253; label: 32P (Klenow fill-in with dCTP)
T2 sequence (looked up): T1 sequence (looked up) with A216K, R219A

[3] = biological target: T3, GST-Elf5 WT (mouse) (UniProt Q8VDK3); details: 20 mM HEPES pH 7.9, 75 mM KCl, 2.5 mM MgCl2, 1 mM EDTA, 0.5 mM DTT, 10% glycerol, 1 ug poly(dA-dT), room temperature, 5% nondenaturing PAGE, residues 1-253, label: 32P (Klenow fill-in with dCTP)
T3 sequence (looked up): T1 sequence (looked up) with A216K

ACGCTAGAGGAGGGGAGGAAAGGGGAGGAGGAA / AGGTTCCTCCTCCCCCTTTCCTCCCCTCCTCTAG [Cyclin D2 promoter oligo]
binding result [1]: no binding
binding result [2]: no binding
binding result ([3]; complex supershifted by two anti-Elf5 antibodies, recombinant protein): binds

CAGATTAGAAAGGAAAAGGATTACAGTAGT / GTGACTACTGTAATCCTTTTCCTTTCTAAT [Cyclin D2 upstream region 1 oligo]
binding result ([3]; recombinant …): binds more weakly

GAGCCAGCAGGATGCTTGACATTCCAGCTGCTGG / AGGCCAGCAGCTGGAATGTCAAGCATCCTGCTGG [Cyclin D2 upstream region 2 oligo]
binding result ([3]; recombinant …): binds more weakly
